These results are taken from publication PMC5118774 (Frontiers in Pharmacology, 2016).

Series [1] concerns mice exposed to unpredictable chronic mild stress (UCMS). Briefly: Novelty suppressed feeding test after UCMS. Type of series: in vivo, C57BL/6J mice. Conditions: female and male UCMS mice, 30 mg/kg i.p. From the text: Mice underwent between 6 and 8 weeks of UCMS (see Supplementary Table S1 for example UCMS schedule). Animals were exposed to 2–3 mild stressors each day throughout the light/dark cycle, including wet bedding, brief restraint, forced bath, no bedding, reduced space, and predator odor over a period of several weeks (see details in Supplementary Material) ([Edgar et al., 2011]; [Lin and Sibille, 2015]). Female mice were housed 5 per cage, and male mice were housed 4 per cage in Optimice cages (Animal Care Systems Inc, Centennial, CO, USA). In experiment 3.4, UCMS was augmented with single-cage isolation housing in male mice beginning at the fourth week of UCMS until sacrifice. […]
After 5 weeks of UCMS, including 3 weeks of drug treatment, animals were assessed in a battery of behavioral tests (each test separated by 48 h, UCMS continued throughout behavioral testing for a period of 1–3 weeks). […] Number of entries into all arms as well as the time spent in the open arms was recorded for 10 min. […] A normal food pellet was placed into the brightly lit center and the latency for an animal to approach and bite the pellet was recorded over a 12 min session. […] Mice were then placed into the opposing chamber separated by the white divider and monitored for 10 min. The latency for each mouse to bite the cookie was recorded. […]

For series [2] the test system is unchanged. Kind of series: Open field test after UCMS. Type of series: in vivo, C57BL/6J mice. Conditions: female and male UCMS mice, 30 mg/kg i.p., control measure (Figure S1C).

Regarding `C#Cc1ccc2c(c1)C(c1ccccc1F)=N[C@H](C)c1c(C(=O)OCC)ncn1-2` [α5-PAM], the “percentage of weight lost after 24 h food deprivation prior to the NSF” value in series [1] (control measure (Figure S1A)) was “No effect”. In series [1] (control measure (Figure S1B)), the “amount of normal chow consumed in the home cage after the NSF” value is “no effect of treatment”. Moreover, the “locomotion (total distance traveled) in the OFT” value in series [2] was “no main effect of treatment”.
